Taken from: PubChem BioAssay AID652272 (Drosophila RNAi Screening Center, 2013)
Screen: 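Genome-wide knock-down search for components of Hedgehog signalling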 (primary screen). System: Drosophila clone 8 (Cl8) cells. Knock-down reagent: long dsRNA against Drosophila genes. Measured: 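Plate reader light from a firefly reporter under a ptc promoter fragment that responds to Hedgehog, with Renilla light as transfection reference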. Direction: firefly Hh reporter signal: higher = more ptc reporter light; Renilla reference signal: higher = more Renilla control light. Hit rule: 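Hit when the z-score averaged over two replicates is under -2 or over +3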. Meaning of the calls: active = hit: reporter lowered or raised; inactive = not a hit.
The deposit covers about 21,000 reagents; shown is a random part of those that have a named target and a result. Of all reagents, 503 (2.4%) were called active. 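Raw plate light values, not normalised; calls rest on replicate z-scores that were not deposited; hits include reporter decreases as well as increases.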 The numbers tell different reagents against one gene apart. Not stated in the record: the amount of reagent, the time to read-out.

Mpcp1 (GeneID 37297): firefly Hh reporter signal, replicate 1 = 86533; firefly Hh reporter signal, replicate 2 = 64173; Renilla reference signal, replicate 1 = 2067; Renilla reference signal, replicate 2 = 4480; Outcome = inactive
l(2)dtl (GeneID 46326): firefly Hh reporter signal, replicate 1 = 1.51e5; firefly Hh reporter signal, replicate 2 = 91936; Renilla reference signal, replicate 1 = 6498; Renilla reference signal, replicate 2 = 4293; Outcome = inactive
Pc (GeneID 40358): firefly Hh reporter signal, replicate 1 = 68076; firefly Hh reporter signal, replicate 2 = 62614; Renilla reference signal, replicate 1 = 2722; Renilla reference signal, replicate 2 = 2552; Outcome = inactive
Vps13B (GeneID 43550): firefly Hh reporter signal, replicate 1 = 97052; firefly Hh reporter signal, replicate 2 = 1.45e5; Renilla reference signal, replicate 1 = 3872; Renilla reference signal, replicate 2 = 4438; Outcome = inactive

Continued (2 carried over from the part before).
Pc (GeneID 40358): firefly Hh reporter signal, replicate 1 = 68076; firefly Hh reporter signal, replicate 2 = 62614; Renilla reference signal, replicate 1 = 2722; Renilla reference signal, replicate 2 = 2552; Outcome = inactive
Vps13B (GeneID 43550): firefly Hh reporter signal, replicate 1 = 97052; firefly Hh reporter signal, replicate 2 = 1.45e5; Renilla reference signal, replicate 1 = 3872; Renilla reference signal, replicate 2 = 4438; Outcome = inactive
nAChRalpha4 (GeneID 40521) #1: firefly Hh reporter signal, replicate 1 = 2.77e5; Renilla reference signal, replicate 1 = 5058; Outcome = inactive
nAChRalpha4 (GeneID 40521) #2: firefly Hh reporter signal, replicate 1 = 4.22e5; Renilla reference signal, replicate 1 = 8443; Outcome = inactive
CG10931 (GeneID 37024): firefly Hh reporter signal, replicate 1 = 1.09e5; firefly Hh reporter signal, replicate 2 = 39318; Renilla reference signal, replicate 1 = 3298; Renilla reference signal, replicate 2 = 2905; Outcome = inactive
CG8788 (GeneID 35932): firefly Hh reporter signal, replicate 1 = 97140; firefly Hh reporter signal, replicate 2 = 68921; Renilla reference signal, replicate 1 = 2169; Renilla reference signal, replicate 2 = 5292; Outcome = inactive
Claspin (GeneID 326205): firefly Hh reporter signal, replicate 1 = 6.98e5; firefly Hh reporter signal, replicate 2 = 73075; Renilla reference signal, replicate 1 = 3452; Renilla reference signal, replicate 2 = 3452; Outcome = inactive
Nup98-96 (GeneID 42816) #1: firefly Hh reporter signal, replicate 1 = 37044; firefly Hh reporter signal, replicate 2 = 19188; Renilla reference signal, replicate 1 = 2098; Renilla reference signal, replicate 2 = 1520; Outcome = active
Nup98-96 (GeneID 42816) #2: firefly Hh reporter signal, replicate 1 = 2.29e5; firefly Hh reporter signal, replicate 2 = 25676; Renilla reference signal, replicate 1 = 17442; Renilla reference signal, replicate 2 = 1629; Outcome = active
UQCR-Q (GeneID 39950): firefly Hh reporter signal, replicate 1 = 1.10e5; Renilla reference signal, replicate 1 = 4754; Renilla reference signal, replicate 2 = 2779; Outcome = inactive
